Assay in all cases: co-IP; IP with anti-FLAG M2 affinity gel (4 °C, 4 h) from lysates of HeLa cells transfected with Flag-tagged constructs; WB for endogenous eIF4GI; lysis buffer with 1% Triton X-100, 0.1% SDS, 1 mM EDTA, pH 7.4
Test [1] deals with G3BP1 (partner tested together with G3BP1-ΔRBD, Fig. 5f and 5g) (UniProt Q13283).
The target in test [2] is Flag-tagged G3BP1 (human (from the RefSeq entry NM_005754.2)) (UniProt Q13283).
Test [3] has as its target T1, Flag-tagged TIA-1 (human (cDNA from HeLa cells)) (UniProt P31483).
T1 sequence: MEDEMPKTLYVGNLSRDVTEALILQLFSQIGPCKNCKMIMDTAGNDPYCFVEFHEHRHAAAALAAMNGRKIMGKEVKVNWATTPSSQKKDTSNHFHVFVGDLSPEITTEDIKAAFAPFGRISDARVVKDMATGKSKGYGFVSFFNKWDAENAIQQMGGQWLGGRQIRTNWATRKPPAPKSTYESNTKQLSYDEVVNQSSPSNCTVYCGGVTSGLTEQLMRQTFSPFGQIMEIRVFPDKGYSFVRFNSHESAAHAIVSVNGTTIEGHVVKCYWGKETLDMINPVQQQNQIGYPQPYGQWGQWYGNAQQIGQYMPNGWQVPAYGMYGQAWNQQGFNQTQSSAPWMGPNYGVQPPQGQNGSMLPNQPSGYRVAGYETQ

Protein sequences, listed by entry. Tags and fused reporters are not part of them. Lines headed by an entry give the natural chain unless they say otherwise; changes in a name come on top.
UniProt Q13283: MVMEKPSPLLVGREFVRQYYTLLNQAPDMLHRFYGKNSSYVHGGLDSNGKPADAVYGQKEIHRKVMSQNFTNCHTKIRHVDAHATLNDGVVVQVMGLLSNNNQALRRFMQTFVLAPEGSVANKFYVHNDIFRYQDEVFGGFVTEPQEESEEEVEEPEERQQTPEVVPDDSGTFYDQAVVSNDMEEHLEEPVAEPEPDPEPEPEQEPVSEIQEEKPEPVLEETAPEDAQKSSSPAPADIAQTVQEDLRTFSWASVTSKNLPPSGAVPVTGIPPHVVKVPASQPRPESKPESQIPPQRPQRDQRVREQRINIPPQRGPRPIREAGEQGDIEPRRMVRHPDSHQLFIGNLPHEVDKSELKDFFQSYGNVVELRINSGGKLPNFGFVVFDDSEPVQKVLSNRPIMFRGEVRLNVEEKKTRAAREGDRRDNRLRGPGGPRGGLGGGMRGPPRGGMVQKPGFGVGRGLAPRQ
UniProt Q04637: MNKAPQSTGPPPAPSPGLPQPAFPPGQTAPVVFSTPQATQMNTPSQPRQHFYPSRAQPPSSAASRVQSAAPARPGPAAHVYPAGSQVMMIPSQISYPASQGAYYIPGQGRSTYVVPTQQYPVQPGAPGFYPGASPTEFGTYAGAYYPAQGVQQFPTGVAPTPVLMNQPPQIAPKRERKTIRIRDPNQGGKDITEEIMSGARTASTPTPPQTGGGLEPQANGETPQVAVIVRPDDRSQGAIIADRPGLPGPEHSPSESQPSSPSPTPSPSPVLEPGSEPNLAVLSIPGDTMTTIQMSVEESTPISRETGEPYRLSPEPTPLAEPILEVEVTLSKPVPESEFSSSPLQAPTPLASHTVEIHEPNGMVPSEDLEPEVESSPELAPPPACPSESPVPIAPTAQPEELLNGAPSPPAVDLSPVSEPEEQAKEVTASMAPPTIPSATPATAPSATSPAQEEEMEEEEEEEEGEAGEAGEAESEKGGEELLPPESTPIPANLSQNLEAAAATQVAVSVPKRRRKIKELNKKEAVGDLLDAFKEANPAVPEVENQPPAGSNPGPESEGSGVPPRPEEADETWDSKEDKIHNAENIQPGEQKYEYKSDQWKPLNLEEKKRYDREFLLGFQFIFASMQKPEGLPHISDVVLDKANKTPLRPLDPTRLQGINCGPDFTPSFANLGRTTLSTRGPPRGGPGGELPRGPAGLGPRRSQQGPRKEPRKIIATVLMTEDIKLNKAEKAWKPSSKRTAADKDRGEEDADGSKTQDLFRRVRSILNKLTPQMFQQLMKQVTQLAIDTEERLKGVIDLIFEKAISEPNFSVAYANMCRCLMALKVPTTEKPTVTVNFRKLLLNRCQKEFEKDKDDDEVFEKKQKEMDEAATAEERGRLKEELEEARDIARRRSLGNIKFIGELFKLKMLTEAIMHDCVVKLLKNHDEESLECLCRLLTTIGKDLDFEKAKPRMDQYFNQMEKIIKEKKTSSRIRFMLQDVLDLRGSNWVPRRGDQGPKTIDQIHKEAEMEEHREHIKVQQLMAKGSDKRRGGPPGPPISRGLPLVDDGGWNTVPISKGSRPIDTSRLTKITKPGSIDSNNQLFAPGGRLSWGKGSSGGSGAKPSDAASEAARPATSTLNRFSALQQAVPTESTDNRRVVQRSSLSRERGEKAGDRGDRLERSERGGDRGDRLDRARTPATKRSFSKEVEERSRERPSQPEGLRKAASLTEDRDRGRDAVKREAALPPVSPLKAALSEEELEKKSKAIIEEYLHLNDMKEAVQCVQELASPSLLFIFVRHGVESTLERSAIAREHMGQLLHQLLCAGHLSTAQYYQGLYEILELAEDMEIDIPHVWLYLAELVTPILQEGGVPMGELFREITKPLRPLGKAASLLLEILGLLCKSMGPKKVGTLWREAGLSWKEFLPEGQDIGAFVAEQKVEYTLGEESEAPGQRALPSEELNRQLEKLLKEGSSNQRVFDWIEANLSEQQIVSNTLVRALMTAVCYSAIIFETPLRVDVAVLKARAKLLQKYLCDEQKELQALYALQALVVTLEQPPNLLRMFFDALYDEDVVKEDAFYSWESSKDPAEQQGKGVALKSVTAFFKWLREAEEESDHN

No constants are given. Whether binding was seen depends on the method and setting. Binding seen in cells or lysates may run through a third protein. Some results given as binding are weak or reduced against the parent protein; the word gives no strength. For part of these data: Tags and fused reporters may be left off the sequences shown.

Turning to “eIF4GI, endogenous (from UniProt Q04637 1-1599)”, the results for the binding entry in test [1], in test [2] and in test [3] were “binds”, “binds” and “no binding”, respectively.

Source of the values: PMC6312541.
